PubChem BioAssay AID1159584 – Peter MacCallum Cancer Centre – 2016

Assay: 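Knock-downs that harm CDH1-null cells more than parental MCF10A cells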 (primary screen)
Cell system: human MCF10A breast epithelial cells, parental and CDH1-null
Knock-down reagent: siRNA against human genes
Measured: 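Cell viability by CellTiter-Glo ATP luminescence, each line scaled to the mean of mock wells across plates, then CDH1-null over parental ratio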
Reading the numbers: CDH1-null / parental viability ratio: higher = CDH1-null cells survive relatively better than parental; CDH1-null viability vs mock: higher = more viable CDH1-null cells
Units: CDH1-null viability vs mock in fraction of mock
Shown is a random part of about 18,000 reagents tested. Further read-outs or replicates are left out here. Reagent sequences are not shown. Not given: the amount of reagent, the time to read-out.

MPC2 → CDH1-null / parental viability ratio = 0.64; CDH1-null viability vs mock = 0.46
OASL → CDH1-null / parental viability ratio = 0.89; CDH1-null viability vs mock = 0.66
HOXC13 → CDH1-null / parental viability ratio = 1.02; CDH1-null viability vs mock = 0.56
HEXD → CDH1-null / parental viability ratio = 0.91; CDH1-null viability vs mock = 0.86
ABCA7 → CDH1-null / parental viability ratio = 1.14; CDH1-null viability vs mock = 1.12
DNAJC7 → CDH1-null / parental viability ratio = 0.95; CDH1-null viability vs mock = 0.84
RMP24 → CDH1-null / parental viability ratio = 0.92; CDH1-null viability vs mock = 0.6
IFT52 → CDH1-null / parental viability ratio = 0.97; CDH1-null viability vs mock = 0.83
EIPR1 → CDH1-null / parental viability ratio = 1.02; CDH1-null viability vs mock = 0.94
SYT14 → CDH1-null / parental viability ratio = 0.74; CDH1-null viability vs mock = 0.5
LRIG1 → CDH1-null / parental viability ratio = 1.18; CDH1-null viability vs mock = 0.9
TMEM62 → CDH1-null / parental viability ratio = 1.3; CDH1-null viability vs mock = 1.03
EML4 → CDH1-null / parental viability ratio = 1.23; CDH1-null viability vs mock = 0.86
CRYBB3 → CDH1-null / parental viability ratio = 1.09; CDH1-null viability vs mock = 0.72
SPOUT1 → CDH1-null / parental viability ratio = 0.74; CDH1-null viability vs mock = 0.4
FGF8 → CDH1-null / parental viability ratio = 0.98; CDH1-null viability vs mock = 0.86
CPA1 → CDH1-null / parental viability ratio = 1.32; CDH1-null viability vs mock = 0.87
EID2 → CDH1-null / parental viability ratio = 1.04; CDH1-null viability vs mock = 0.94
TARDBP → CDH1-null / parental viability ratio = 1.21; CDH1-null viability vs mock = 0.94
SMC5 → CDH1-null / parental viability ratio = 0.84; CDH1-null viability vs mock = 0.36
KLK15 → CDH1-null / parental viability ratio = 1.04; CDH1-null viability vs mock = 0.81
OR2T4 → CDH1-null / parental viability ratio = 0.85; CDH1-null viability vs mock = 0.66
SPACA5 → CDH1-null / parental viability ratio = 1.06; CDH1-null viability vs mock = 0.83
PRDM5 → CDH1-null / parental viability ratio = 0.94; CDH1-null viability vs mock = 0.96
RTL3 → CDH1-null / parental viability ratio = 1.52; CDH1-null viability vs mock = 0.76
TUBA3D → CDH1-null / parental viability ratio = 0.89; CDH1-null viability vs mock = 0.66
LHX1 → CDH1-null / parental viability ratio = 0.94; CDH1-null viability vs mock = 0.92
AGAP3 → CDH1-null / parental viability ratio = 0.64; CDH1-null viability vs mock = 0.5
OR56A3 → CDH1-null / parental viability ratio = 0.84; CDH1-null viability vs mock = 0.82
COPZ2 → CDH1-null / parental viability ratio = 1.53; CDH1-null viability vs mock = 0.55
PROCA1 → CDH1-null / parental viability ratio = 0.71; CDH1-null viability vs mock = 0.5
TTC8 → CDH1-null / parental viability ratio = 0.97; CDH1-null viability vs mock = 0.93
TCTN1 → CDH1-null / parental viability ratio = 0.9; CDH1-null viability vs mock = 0.9
NUTF2 → CDH1-null / parental viability ratio = 0.94; CDH1-null viability vs mock = 0.58
DAAM1 → CDH1-null / parental viability ratio = 0.69; CDH1-null viability vs mock = 0.55
PRSS58 → CDH1-null / parental viability ratio = 1.17; CDH1-null viability vs mock = 0.77
NCAPG2 → CDH1-null / parental viability ratio = 1.27; CDH1-null viability vs mock = 0.7
UBE3B → CDH1-null / parental viability ratio = 1.17; CDH1-null viability vs mock = 0.82
FCHSD1 → CDH1-null / parental viability ratio = 1.23; CDH1-null viability vs mock = 0.76
AMPD3 → CDH1-null / parental viability ratio = 0.89; CDH1-null viability vs mock = 0.94
DUOX1 → CDH1-null / parental viability ratio = 0.97; CDH1-null viability vs mock = 0.94
AKR1C4 → CDH1-null / parental viability ratio = 1.07; CDH1-null viability vs mock = 1.03
IRF1 → CDH1-null / parental viability ratio = 0.9; CDH1-null viability vs mock = 0.72
HOXA9 → CDH1-null / parental viability ratio = 1.28; CDH1-null viability vs mock = 0.95
TXN2 → CDH1-null / parental viability ratio = 0.89; CDH1-null viability vs mock = 0.66

Targets listed so far whose gene name begins with T or t:
TMEM62 → CDH1-null / parental viability ratio = 1.3; CDH1-null viability vs mock = 1.03
TARDBP → CDH1-null / parental viability ratio = 1.21; CDH1-null viability vs mock = 0.94
TUBA3D → CDH1-null / parental viability ratio = 0.89; CDH1-null viability vs mock = 0.66
TTC8 → CDH1-null / parental viability ratio = 0.97; CDH1-null viability vs mock = 0.93
TCTN1 → CDH1-null / parental viability ratio = 0.9; CDH1-null viability vs mock = 0.9
TXN2 → CDH1-null / parental viability ratio = 0.89; CDH1-null viability vs mock = 0.66
